The test has as its target T1, Hsp22-3xFLAG (Drosophila) (UniProt P02515).
T1 sequence: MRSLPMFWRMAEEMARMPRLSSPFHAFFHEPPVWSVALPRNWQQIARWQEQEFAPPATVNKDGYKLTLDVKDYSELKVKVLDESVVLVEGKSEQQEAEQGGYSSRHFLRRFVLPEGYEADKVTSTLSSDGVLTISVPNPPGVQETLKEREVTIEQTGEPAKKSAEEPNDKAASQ
As to the kind of experiment: co-IP; S2 cells expressing Hsp22-3xFLAG (bait) and a 5xMyc-tagged prey from one pAc5-STABLE-neo plasmid (T2A); M2 anti-FLAG agarose beads; Western blot with anti-FLAG and anti-Myc. (In general: Immunoblotting shows a protein as a band on a membrane.)

Amino acid sequences for entries named in this document (tags omitted). A change or cut given only in a name is not applied to a line headed by its entry.
UniProt Q9VIE8: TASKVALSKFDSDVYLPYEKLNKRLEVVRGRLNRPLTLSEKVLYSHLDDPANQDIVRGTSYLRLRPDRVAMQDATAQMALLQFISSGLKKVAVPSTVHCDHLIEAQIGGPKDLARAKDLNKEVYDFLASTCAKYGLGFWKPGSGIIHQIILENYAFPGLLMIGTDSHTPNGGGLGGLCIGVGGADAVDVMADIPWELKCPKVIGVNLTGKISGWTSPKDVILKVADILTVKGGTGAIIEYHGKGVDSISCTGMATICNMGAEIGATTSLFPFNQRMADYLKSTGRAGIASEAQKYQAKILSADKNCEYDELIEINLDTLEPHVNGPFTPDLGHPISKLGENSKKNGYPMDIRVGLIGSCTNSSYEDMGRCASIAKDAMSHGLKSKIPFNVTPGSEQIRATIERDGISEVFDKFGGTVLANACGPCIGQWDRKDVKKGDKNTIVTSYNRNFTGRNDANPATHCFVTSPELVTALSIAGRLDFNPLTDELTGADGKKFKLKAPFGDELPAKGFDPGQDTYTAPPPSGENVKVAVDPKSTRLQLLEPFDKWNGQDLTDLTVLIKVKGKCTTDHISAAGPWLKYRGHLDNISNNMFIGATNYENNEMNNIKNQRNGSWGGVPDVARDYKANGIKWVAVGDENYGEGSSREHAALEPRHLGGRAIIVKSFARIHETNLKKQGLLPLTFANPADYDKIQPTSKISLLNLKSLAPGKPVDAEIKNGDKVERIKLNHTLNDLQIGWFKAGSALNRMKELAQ

Results are given in words; binding and its absence hold for the method and conditions named. In cells and extracts the contact can be indirect. Binding calls can cover weak binding; strength is not graded here. Sequences can lack the tags named with a protein.

Take mAcon1-5xMyc (from UniProt Q9VIE8): the binding entry is “binds”.

For the origin of these results see PMC12218971.
